Results reported in the supplement of paper PMC11006884.
Most of the targets with a hit are listed elsewhere, so they are rarer here than in the full data. The data scatter; read single values as rough. This is a selection; strong and weak results do not stand in their true shares.

Chains of the proteins cited; added tags and fusions are not shown. Lines headed by an entry give the natural chain unless they say otherwise; changes in a name come on top.
UniProt Q6AI08: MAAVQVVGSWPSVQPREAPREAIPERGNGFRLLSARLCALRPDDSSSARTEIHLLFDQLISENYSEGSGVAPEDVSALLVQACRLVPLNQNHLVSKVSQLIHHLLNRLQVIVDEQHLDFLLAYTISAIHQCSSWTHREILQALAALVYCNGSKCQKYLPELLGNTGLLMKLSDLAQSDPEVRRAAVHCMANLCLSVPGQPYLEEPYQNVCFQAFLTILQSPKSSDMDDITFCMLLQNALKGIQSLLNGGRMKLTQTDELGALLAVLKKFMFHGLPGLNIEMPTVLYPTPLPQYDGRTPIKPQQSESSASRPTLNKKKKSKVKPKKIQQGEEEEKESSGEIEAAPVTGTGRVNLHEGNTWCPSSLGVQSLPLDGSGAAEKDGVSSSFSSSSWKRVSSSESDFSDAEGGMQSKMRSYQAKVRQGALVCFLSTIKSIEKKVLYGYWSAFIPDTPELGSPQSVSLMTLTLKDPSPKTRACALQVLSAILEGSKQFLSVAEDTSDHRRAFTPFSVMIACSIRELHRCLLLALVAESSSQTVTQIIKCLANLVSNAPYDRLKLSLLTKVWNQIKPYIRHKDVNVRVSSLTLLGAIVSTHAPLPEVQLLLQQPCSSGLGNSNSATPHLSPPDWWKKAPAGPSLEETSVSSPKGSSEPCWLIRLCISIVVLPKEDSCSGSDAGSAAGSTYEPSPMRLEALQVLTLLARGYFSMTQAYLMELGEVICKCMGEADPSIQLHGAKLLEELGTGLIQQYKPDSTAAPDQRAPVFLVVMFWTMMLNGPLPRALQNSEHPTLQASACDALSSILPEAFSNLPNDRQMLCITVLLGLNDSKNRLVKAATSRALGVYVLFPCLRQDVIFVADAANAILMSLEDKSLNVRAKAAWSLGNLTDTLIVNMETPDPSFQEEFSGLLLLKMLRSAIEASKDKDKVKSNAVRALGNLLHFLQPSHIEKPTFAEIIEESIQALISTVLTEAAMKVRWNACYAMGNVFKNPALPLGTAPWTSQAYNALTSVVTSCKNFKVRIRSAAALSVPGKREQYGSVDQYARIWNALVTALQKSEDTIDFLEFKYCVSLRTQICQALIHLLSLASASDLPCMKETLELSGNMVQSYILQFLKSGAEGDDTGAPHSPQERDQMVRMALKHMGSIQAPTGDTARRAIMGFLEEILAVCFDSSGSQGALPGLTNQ
UniProt Q5JTD0: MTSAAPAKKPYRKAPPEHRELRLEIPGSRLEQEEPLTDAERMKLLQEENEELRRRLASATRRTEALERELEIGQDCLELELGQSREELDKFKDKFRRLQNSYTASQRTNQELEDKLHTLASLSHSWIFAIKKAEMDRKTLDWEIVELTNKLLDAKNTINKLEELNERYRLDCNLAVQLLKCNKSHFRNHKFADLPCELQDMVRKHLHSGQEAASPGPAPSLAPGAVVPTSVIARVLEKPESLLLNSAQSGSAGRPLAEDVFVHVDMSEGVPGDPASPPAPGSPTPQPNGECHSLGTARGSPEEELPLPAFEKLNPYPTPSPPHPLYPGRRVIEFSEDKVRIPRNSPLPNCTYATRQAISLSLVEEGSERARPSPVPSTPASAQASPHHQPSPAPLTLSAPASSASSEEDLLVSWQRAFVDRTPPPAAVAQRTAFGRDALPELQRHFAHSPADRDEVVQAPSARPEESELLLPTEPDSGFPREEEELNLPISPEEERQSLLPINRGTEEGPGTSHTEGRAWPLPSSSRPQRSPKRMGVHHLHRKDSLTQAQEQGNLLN
UniProt Q5VT66: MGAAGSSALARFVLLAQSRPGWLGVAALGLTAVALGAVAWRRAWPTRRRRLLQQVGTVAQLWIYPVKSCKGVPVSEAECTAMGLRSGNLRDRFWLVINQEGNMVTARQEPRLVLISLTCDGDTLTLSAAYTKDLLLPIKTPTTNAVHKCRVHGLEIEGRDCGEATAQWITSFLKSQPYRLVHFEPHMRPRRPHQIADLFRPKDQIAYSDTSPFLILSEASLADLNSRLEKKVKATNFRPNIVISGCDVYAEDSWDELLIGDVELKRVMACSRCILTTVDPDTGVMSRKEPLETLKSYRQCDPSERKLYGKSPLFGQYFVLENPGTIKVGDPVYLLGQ
UniProt Q6KC79: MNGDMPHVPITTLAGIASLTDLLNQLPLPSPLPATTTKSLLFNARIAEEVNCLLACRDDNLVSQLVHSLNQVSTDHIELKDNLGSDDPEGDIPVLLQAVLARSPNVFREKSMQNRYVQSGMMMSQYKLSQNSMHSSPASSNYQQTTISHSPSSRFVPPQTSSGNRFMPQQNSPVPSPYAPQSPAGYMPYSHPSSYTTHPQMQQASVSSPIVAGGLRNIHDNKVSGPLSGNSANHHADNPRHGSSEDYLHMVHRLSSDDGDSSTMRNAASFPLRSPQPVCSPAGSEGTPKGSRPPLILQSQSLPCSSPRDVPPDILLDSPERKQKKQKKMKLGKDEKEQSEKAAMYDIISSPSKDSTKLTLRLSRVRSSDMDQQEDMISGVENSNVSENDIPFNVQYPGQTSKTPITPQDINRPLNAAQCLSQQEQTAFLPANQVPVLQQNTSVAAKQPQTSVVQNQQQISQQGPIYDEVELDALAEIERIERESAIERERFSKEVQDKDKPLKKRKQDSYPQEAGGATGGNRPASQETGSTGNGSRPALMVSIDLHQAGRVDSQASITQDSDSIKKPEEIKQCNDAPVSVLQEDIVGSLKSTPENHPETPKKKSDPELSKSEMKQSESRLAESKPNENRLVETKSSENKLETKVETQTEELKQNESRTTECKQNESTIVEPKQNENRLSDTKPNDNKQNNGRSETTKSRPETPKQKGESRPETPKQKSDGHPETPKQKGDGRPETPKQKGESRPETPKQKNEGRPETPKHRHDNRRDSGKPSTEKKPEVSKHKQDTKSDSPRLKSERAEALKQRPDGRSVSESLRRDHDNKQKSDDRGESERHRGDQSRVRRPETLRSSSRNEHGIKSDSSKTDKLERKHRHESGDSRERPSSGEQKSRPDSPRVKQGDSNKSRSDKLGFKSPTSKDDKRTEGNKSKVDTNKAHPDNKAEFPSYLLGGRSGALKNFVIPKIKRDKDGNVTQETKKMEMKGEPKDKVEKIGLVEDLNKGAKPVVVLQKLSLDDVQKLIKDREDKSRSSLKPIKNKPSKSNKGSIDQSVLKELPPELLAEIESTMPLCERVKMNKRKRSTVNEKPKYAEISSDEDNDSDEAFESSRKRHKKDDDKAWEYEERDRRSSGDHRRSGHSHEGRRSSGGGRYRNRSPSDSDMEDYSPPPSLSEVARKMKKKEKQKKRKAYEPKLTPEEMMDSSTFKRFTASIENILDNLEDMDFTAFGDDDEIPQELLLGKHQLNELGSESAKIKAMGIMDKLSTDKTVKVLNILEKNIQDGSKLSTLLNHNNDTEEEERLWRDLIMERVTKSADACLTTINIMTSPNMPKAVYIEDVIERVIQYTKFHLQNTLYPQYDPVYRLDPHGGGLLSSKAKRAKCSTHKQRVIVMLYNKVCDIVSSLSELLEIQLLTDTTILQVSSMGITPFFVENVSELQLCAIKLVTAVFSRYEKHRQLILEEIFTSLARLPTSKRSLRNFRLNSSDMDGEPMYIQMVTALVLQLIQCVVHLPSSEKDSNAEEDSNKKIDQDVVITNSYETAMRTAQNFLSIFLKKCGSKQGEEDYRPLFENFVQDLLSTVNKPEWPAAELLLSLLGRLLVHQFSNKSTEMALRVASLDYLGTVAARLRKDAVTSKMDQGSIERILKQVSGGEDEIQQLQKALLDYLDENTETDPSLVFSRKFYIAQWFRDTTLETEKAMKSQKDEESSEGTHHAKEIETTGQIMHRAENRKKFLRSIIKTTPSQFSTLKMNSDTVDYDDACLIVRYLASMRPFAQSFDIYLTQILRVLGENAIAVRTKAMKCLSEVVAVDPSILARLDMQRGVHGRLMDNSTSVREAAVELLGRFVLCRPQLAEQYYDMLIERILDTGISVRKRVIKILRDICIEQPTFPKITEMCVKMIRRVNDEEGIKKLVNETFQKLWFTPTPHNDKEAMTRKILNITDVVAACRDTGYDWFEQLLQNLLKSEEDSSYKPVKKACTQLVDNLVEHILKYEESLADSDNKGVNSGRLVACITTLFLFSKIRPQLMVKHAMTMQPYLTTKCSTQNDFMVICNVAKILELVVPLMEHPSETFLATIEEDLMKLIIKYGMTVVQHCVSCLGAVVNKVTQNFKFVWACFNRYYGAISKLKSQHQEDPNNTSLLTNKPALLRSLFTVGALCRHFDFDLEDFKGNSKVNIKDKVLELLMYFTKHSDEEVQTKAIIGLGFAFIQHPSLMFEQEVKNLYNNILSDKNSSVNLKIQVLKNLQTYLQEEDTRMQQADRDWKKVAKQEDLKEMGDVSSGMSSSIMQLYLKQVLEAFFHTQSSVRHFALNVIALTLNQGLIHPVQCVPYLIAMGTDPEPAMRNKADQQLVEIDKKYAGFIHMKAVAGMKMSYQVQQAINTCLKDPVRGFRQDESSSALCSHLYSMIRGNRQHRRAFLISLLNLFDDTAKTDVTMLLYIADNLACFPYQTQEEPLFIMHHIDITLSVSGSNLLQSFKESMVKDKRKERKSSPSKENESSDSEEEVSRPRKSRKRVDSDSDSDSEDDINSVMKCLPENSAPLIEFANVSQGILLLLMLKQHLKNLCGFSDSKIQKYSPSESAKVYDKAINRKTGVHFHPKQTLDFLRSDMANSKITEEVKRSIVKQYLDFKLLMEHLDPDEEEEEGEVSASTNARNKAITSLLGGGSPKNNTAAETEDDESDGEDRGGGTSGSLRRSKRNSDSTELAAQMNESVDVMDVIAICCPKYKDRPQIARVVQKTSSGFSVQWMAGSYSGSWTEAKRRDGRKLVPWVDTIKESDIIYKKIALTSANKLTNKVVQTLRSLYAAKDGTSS
UniProt Q6PCB5: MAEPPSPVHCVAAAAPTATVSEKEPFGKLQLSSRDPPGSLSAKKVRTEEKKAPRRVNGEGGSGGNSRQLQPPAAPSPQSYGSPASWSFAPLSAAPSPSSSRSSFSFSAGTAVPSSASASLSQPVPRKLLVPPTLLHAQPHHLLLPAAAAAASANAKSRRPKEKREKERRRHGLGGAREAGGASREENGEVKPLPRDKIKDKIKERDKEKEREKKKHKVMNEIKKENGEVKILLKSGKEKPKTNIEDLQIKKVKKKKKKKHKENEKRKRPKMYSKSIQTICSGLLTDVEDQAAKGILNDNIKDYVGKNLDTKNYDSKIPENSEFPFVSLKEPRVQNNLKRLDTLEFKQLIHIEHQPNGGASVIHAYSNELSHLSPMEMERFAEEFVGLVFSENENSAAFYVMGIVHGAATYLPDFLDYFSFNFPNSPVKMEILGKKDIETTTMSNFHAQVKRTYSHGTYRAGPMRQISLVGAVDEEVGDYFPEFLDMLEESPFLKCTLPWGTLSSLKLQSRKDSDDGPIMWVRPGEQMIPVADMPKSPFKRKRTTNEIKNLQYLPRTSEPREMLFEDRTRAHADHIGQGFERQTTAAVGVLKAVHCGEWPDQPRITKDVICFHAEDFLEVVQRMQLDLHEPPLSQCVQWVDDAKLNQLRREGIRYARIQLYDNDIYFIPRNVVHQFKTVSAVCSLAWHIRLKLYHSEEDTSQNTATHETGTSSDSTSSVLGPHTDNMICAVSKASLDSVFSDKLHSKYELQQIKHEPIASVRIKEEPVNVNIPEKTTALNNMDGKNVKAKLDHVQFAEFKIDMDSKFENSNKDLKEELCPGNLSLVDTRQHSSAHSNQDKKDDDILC
UniProt Q6P1R4: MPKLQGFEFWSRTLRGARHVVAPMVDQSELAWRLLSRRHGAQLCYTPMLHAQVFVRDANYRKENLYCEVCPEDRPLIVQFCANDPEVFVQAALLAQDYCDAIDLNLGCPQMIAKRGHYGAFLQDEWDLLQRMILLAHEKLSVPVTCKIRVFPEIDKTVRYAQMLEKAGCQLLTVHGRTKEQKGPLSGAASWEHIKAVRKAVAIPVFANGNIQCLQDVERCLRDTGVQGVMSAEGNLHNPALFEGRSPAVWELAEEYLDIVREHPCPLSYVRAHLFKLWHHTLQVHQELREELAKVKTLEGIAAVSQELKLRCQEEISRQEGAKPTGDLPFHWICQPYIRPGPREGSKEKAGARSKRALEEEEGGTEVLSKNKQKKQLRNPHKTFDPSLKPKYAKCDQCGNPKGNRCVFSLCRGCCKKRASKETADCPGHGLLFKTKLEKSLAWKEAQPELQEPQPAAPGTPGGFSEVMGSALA
UniProt Q6UX07: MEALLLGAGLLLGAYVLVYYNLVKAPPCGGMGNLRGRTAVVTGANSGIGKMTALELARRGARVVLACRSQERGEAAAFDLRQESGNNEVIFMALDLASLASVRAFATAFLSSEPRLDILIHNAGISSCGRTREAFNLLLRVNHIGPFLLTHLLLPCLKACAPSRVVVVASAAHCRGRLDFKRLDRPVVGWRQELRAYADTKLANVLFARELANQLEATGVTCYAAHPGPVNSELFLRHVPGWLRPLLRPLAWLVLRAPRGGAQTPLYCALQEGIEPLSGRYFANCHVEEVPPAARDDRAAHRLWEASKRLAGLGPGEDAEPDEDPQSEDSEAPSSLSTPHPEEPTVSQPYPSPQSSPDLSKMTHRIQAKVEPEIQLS

What follows are targets tested with COC(=O)/C=C/c1ccccc1 [methyl cinnamate] (assay: log2 ratio of iodoacetamide-alkyne labeling of the cysteine site, DMSO over compound (competition); higher = stronger covalent engagement of the cysteine by the compound, active = 1 or more). Details: 500 µM; treatment time 1 h; system: HEK293T cell lysate.
Method in brief: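 Reporter intensities give each cysteine's log2 competition ratio as the mean of control channels over the mean of compound channels. The samples were HEK293T lysate (2 mg/mL) given vehicle or electrophile (500 µM, 1 h, ambient temperature), then iodoacetamide alkyne (1 h), followed by click coupling to sCIP-TMT reagents, pooling, trypsin digestion overnight at 37 °C, streptavidin enrichment, acid elution, Orbitrap Eclipse LC-MS/MS with FAIMS and FragPipe quantification. Duplicate channels and three replicates were run, and cysteines quantified in only one replicate were discarded.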

log2 ratio of iodoacetamide-alkyne labeling, inactive:
RBM20 C1099 (UniProt Q5T481) 0.131
RRP12 C261 (UniProt Q5JTH9) 0.141
HEATR6 C360 (UniProt Q6AI08) 0.229
TJAP1 C196 (UniProt Q5JTD0) -0.0219
UBR4 C1450 (UniProt Q5T4S7) 0.181
TBC1D9B C1079 (UniProt Q66K14) 0.151
SLC25A24 C330 (UniProt Q6NUK1) 0.221
SRCAP C2246 (UniProt Q6ZRS2) 0.4
EDC4 C1130 (UniProt Q6P2E9) 0.135
CAMSAP1 C1379 (UniProt Q5T5Y3) 0.636
PRPF8 C2144 (UniProt Q6P2Q9) 0.282
MPRIP C831 (UniProt Q6WCQ1) -0.0326
UniProt Q6P2H3_C527 -0.0998
UniProt Q5UCC4_C49 0.124
DENND4C C955 (UniProt Q5VZ89) 0.272
CDKAL1 C6 (UniProt Q5VV42) 0.0226
MARC1 C273 (UniProt Q5VT66) -0.0159
MTHFD1L C778 (UniProt Q6UB35) 0.301
ARMC6 C484 (UniProt Q6NXE6) 0.0961
EDC4 C976 (UniProt Q6P2E9) 0.314
NIPBL C1876 (UniProt Q6KC79) -0.0771
DOCK11 C592 (UniProt Q5JSL3) -0.228
NFXL1 C212 (UniProt Q6ZNB6) -0.203
YOD1 C97 (UniProt Q5VVQ6) 0.188
GIGYF2 C289 (UniProt Q6Y7W6) -0.162
ARID2 C1512 (UniProt Q68CP9) 0.404
PRPF8 C435 (UniProt Q6P2Q9) 0.187
RSBN1L C280 (UniProt Q6PCB5) 0.288
UniProt Q5T8A7_C245 -0.0746
ZC3H14 C712 (UniProt Q6PJT7) -0.316
DARS2 C590 (UniProt Q6PI48) 0.0339
UniProt Q5JSZ5_C525 0.513
DUS1L C213 (UniProt Q6P1R4) -0.00588
DHRS13 C268 (UniProt Q6UX07) 0.0345
ATAD2 C463 (UniProt Q6PL18) 0.0785
RIF1 C1139 (UniProt Q5UIP0) -0.026
ATAD3B C616 (UniProt Q5T9A4) -0.0264

Fetched one by one from the entries so far, two records:
log2 ratio of iodoacetamide-alkyne labeling, inactive:
UniProt Q5JSZ5_C525 0.513
ATAD3B C616 (UniProt Q5T9A4) -0.0264
